Experimental data as given in paper PMC11814294.
No constants are given. Whether binding was seen depends on the method and setting. For some assays here: In cells and extracts the contact can be indirect. Some binding calls cover weakened binding; strength is not graded here. For some assays here: Where a sequence is shown, tags or fusion partners need not be part of it.

The chains behind the UniProt entries cited, without tags or fusion partners.
UniProt Q94BT6: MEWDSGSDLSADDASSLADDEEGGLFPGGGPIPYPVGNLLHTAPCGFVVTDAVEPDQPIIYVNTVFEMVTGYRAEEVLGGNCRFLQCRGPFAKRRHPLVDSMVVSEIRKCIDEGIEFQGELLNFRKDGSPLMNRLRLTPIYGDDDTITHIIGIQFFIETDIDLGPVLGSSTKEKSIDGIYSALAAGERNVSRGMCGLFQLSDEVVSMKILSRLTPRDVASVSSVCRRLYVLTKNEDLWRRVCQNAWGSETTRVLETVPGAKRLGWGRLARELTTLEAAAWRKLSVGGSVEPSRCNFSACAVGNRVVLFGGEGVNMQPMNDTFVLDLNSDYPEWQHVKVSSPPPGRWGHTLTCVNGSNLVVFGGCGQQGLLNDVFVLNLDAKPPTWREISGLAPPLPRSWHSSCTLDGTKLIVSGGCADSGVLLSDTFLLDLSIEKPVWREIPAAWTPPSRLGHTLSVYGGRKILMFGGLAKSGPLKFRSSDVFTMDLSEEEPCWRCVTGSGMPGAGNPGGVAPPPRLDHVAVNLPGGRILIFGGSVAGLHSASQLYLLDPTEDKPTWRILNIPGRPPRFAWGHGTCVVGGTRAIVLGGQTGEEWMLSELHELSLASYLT
UniProt Q9FTA2: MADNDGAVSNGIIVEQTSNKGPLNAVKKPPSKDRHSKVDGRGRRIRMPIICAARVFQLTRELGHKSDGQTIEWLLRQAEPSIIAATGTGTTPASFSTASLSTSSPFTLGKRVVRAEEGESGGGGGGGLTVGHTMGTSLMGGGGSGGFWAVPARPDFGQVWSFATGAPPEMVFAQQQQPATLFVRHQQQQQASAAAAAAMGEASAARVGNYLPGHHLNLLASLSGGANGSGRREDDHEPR

Columns and labels:
[1] = biological target: ZTL, Gal4 DNA-binding domain fusion (Arabidopsis thaliana) (UniProt Q94BT6); experiment: yeast three-hybrid; pGADT7-CHE with BD-ZTL or BD-TOC1 in pBridge, which also expresses HaRxL10 or YFP (control) from PMet; Gold strain; selection on SD/-Leu-Trp-Met-His with 3-AT
[2] = biological target: T1, TIMING OF CAB EXPRESSION 1 (TOC1), Gal4 DNA-binding domain fusion (Arabidopsis thaliana) (UniProt Q9LKL2); experiment: as above
T1 sequence: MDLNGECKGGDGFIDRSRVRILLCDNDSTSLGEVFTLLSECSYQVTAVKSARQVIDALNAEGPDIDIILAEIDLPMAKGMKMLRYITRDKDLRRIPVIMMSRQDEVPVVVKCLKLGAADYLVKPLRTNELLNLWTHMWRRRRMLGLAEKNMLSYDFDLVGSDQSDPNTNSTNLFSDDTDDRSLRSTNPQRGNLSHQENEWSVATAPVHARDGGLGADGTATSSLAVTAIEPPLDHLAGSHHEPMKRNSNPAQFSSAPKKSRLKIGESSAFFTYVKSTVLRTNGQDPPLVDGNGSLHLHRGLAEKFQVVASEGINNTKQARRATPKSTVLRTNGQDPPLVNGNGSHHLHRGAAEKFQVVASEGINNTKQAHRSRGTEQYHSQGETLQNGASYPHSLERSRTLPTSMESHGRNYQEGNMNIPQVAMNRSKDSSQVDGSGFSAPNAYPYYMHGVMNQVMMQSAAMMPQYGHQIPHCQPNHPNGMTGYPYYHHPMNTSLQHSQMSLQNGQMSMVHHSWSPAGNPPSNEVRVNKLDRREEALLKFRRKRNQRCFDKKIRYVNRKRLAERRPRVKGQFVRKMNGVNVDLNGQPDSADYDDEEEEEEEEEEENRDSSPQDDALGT

[3] = biological target: ZTL, Gal4 DNA-binding domain fusion (Arabidopsis thaliana) (UniProt Q94BT6); experiment: two-hybrid; single tests: both constructs (pGADT7-GW and pGBKT7-GW) transformed into AH109; selection on SD/-Leu-Trp-His-Ade
[4] = biological target: T1, TIMING OF CAB EXPRESSION 1 (TOC1), Gal4 DNA-binding domain fusion (Arabidopsis thaliana); experiment: as above
[5] = biological target: cYFP-ZTL (Arabidopsis thaliana) (UniProt Q94BT6); experiment: split reporter; BiFC: cYFP and nYFP fusions transiently co-expressed in N. benthamiana leaves for two days, confocal microscopy

Substance | binding [1] | binding [2] | binding [3] | binding [4] | binding [5]
CCA1 HIKING EXPEDITION (CHE), full length, Gal4 activation domain fusion (from UniProt Q9FTA2 1-239) | binds | binds | binds | binds | 
nYFP-CHE (from UniProt Q9FTA2 1-239) |  |  |  |  | binds
